The values below come from patent US20020137684A1, “Ligand for enhancing oral and CNS delivery of biological agents” (priority 2000, published 2002).

The subject of this data set is Caco-2 monolayers. The data set can be described thus: Transport of peroxidase conjugate across Caco-2 monolayers. The settings on record: in the presence of the conjugate. The protocol:
A two-chamber Caco-2 model was used to evaluate the transport of a conjugate comprising peroxidase and a peptide comprising an amino acid sequence of SEQ. ID. NO.:1 across the intestinal barrier (IB) in vitro. […] The medium containing isotope-labeled compound, the SEQ. ID. NO.:1-Peroxidase conjugate ([…]) or Control Peroxidase conjugate ([…]) was added to the apical side of cultured Caco-2 monolayers.
(Caco-2 cells form a polarised layer with tight junctions and transporters.)

Regarding “SEQ. ID. NO.:1-Peroxidase Conjugate (CRVLDGDRTRWG; peroxidase conjugate; MOD_RES (1) …ON)”, the “Transport of 3H-Mannitol, P, %” value (2 hours) is listed as 6.6% and the “Transport of 3H-Mannitol, P, %” value (4 hours) is reported as 12.4%.
